Measured values: the supplement of paper PMC3334620
Whole data set: some 33,000 sequences, median “E-score (-0.5 to 0.5)” near -0.015, cut for the highest 2% near 0.3. The list shows a part of the results.

Target: T1, Abf1 (UniProt P14164)
T1 sequence: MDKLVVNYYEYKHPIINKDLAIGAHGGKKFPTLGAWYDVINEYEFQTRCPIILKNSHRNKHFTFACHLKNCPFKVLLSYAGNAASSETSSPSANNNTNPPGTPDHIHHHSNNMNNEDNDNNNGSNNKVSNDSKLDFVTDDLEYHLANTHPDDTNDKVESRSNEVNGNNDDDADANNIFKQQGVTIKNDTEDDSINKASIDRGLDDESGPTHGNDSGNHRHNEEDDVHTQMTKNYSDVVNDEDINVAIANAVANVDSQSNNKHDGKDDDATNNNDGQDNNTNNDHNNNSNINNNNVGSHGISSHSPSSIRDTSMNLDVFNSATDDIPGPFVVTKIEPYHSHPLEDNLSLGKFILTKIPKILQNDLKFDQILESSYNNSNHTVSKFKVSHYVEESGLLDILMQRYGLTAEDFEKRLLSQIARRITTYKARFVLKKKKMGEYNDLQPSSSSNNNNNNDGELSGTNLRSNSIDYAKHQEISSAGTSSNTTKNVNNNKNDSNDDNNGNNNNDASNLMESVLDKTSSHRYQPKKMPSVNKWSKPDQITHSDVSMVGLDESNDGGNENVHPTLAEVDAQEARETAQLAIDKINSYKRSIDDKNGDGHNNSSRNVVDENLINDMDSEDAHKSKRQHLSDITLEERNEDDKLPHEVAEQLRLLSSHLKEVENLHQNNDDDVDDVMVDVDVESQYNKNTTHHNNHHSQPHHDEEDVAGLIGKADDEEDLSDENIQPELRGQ
Test: PBM E-score (8-mer binding enrichment) (E-score (-0.5 to 0.5)); higher = stronger / more preferred TF binding
Conditions: protein concentration: 200 nM; construct: GST-full length
Procedure, shortened: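 Yeast transcription factors, full-length or as DNA-binding domains, were expressed with a GST tag using PURExpress in vitro transcription/translation. At about 100-200 nM they were applied to universal all-10-mer Agilent arrays, double-stranded by primer extension on fresh or once-stripped slides. Fluorescent anti-GST detected bound protein, and masliner normalised the scans. E-scores for ungapped eight-base words, pooled with reverse complements, came from the Universal PBM Analysis Suite.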

Sequence | PBM E-score
ACAATTAG | -0.137
CCCGCACC | -0.3
GATCATCC | 0.197
ATGTTCCG | -0.0196
AACCGGAT | 0.0336
ACCTCCAG | -0.15
CGACAGGC | -0.13
ACGGGTAG | -0.098
GCCATGAC | 0.137
GTAATTCA | 0.0756
ATGTACGA | 0.444
CAGGAACG | -0.0728
AAAAGCGT | -0.104
AAGCTATC | 0.167
ATCAGTGC | -0.0556
CTGAGAGA | -0.0645
ATGAAGTG | 0.00194
GTAACCGA | -0.112
AGCGTAAA | -0.105
CAAAAATC | -0.091
ATGCTAAA | 0.0969
AACACGCG | -0.00618
CATCTTGC | 0.104
ACCGCAAT | 0.0745
CCACAGCA | -0.00404

Sequence | PBM E-score
ATGGTGTA | 0.0439
GGAGCACA | -0.0857
AGCGCTCC | 0.0343
AAAATTTG | 0.114
GGTGCGTA | 0.0324
CATATGCC | 0.0684
GCGGATCA | -0.0391
TCTCACCA | 0.145
AGATAACT | 0.0371
ATTTGCCA | -0.0663
ACACCTGG | -0.0483
GTGTCACA | 0.186
CCAGGGAA | -0.272
TGGGTTAA | -0.193
ACGTTACC | -0.0381
CGATGGGA | -0.025
ATGGTTCG | -0.225
GGTCAATA | -0.0187
GAAGGTCC | -0.142
GCACATCA | 0.149
TAGACTAA | -0.193
AGGAGATG | -0.101
CACTGTGG | -0.175
ACGTACAG | -0.0233
ACGACGCG | 0.201

Sequence | PBM E-score
GCAGCAGC | -0.104
GTTCCAGA | -0.078
ATTCAATC | 0.172
GGGCCAAA | -0.111
CGTTGATA | 0.0989
CCCCAATA | -0.167
AAACCATC | -0.0152
AACCGACG | 0.0464
CCGGAAGA | 0.0618
AGTAAGGC | -0.0216
GAGTTGGC | -0.182
AGTGACTC | 0.149
CATACGCC | -0.00293
ACCACGCA | -0.132
AGTTCTAA | 0.0689
AATTAATT | 0.00666
AGGACGTG | 0.0342
GTTCTCGA | 0.0249
CTAGTGTC | 0.0664
AAAGGTCC | 0.157
ACCTTGGA | -0.145
AGAGAGTG | -0.11
CTGGATAA | 0.0803
ACTTATGA | -0.00024
GCTTTTTA | 0.0686

5 records picked at random from the list so far:
Sequence | PBM E-score
GCTTTTTA | 0.0686
CCGGAAGA | 0.0618
AGTGACTC | 0.149
GTTCCAGA | -0.078
CTGGATAA | 0.0803

(cont.)

Sequence | PBM E-score
ACGTGAGA | 0.128
AGGCCCCC | -0.451
GTTCGATA | -0.00794
TAAGTCGA | -0.0778
ATCCGGGC | -0.197
AATCCCCG | 0.127
AGTTCGAG | 0.0367
AAATTCAC | 0.0554
GGGCGCAA | -0.0456
GGATTATA | 0.0832
AACGTCAC | 0.238
ATGATCCC | -0.116
CACCGAAG | -0.0733
GATAAATA | 0.257
GGCTAAAC | -0.137
TGGTTGAA | -0.141
CGTAACAG | -0.194
ACGGGGAG | -0.203
ATTCAAAG | 0.00432
CGCGGGTC | 0.0359
ATCATGCG | 0.123
ATCCTACA | -0.0536
CGCAAGGC | -0.172
CGGAGCAC | 0.0628
CAGACCTA | -0.0809

Sequence | PBM E-score
AACTCCGC | -0.212
CAACGACA | 0.208
CCTTAGTA | -0.0951
CAACCAAG | 0.0714
CGGGGGCA | -0.258
CAAAAACG | 0.157
CTCGAAAA | -0.109
AAACCCTA | -0.0584
ACCTCTGG | -0.129
CAGACCCC | -0.328
ACATGAGC | -0.102
GAACGATA | 0.301
GACGAATC | 0.246
AGTAACAG | 0.0121
CGCTCATA | -0.0325
AGATACCC | 0.00447
AAGCCCGG | -0.206
GGATCACA | 0.00896
AGAGATGG | -0.0916
ACAAATCA | 0.177
GTGATAAC | 0.371
TAGAGAGA | 0.0331
CCCCAGGG | -0.311
CTCCAACC | -0.0598
CGGTTCTA | 0.119

Rewritten with each value named: part of the list above.
CGCGGGTC
  PBM E-score: 0.0359
ATCATGCG
  PBM E-score: 0.123
ATCCTACA
  PBM E-score: -0.0536
CGCAAGGC
  PBM E-score: -0.172

The listing continues:

Sequence | PBM E-score
ATGCCCAC | -0.0381
CAATTGCC | -0.0157
GCGTCGCC | -0.0875
CACCGCCA | -0.245
CGCACTGC | -0.0546
AAATTTAC | 0.0881
GAAAAACC | -0.0134
CTCGGTGC | -0.104
AACCATCG | 0.0263
AGCTCAGC | -0.164
AAGCGGGG | -0.227
CGTTTAAG | 0.183
ACGCAGGG | -0.137
TACGCCGA | -0.076
GGTACCGA | -0.14
CACAGCTG | -0.0915
CTCACGGC | 0.142
ATTGTACC | 0.0665
AGTCTTAG | -0.112
CAGTTAGG | -0.0487
GGCACTTA | 0.023
AAATAGGG | -0.079
ACCAGGGT | -0.205
CAGAATGG | -0.00418
GGGTAAAC | -0.0805

Sequence | PBM E-score
GAACAGTA | -0.0158
ACCTTGAG | -0.019
CCGGCCCC | -0.3
GTTATACA | 0.0621
GTGAATCA | -0.018
AACTGTAC | 0.0409
AGCGAATA | 0.202
TCAATGCA | 0.0463
CTGATGTA | -0.129
AAATGTGT | 0.111
AGACGTCT | -0.0435
ACTCCTCG | 0.064
ACAGTGCG | -0.236
GAGCGATA | 0.223
CTAGTTGC | 0.0763
AAGAATAT | 0.00319
GCGCACAA | -0.0646
CGTCCCCC | -0.0818
ACGGTGTA | 0.147
AGTCGTTA | 0.197
GCGGAAAC | -0.206
ATACCATC | -0.131
